# PubChem BioAssay AID1259308, NCATS – 2017
# Assay: 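Genes whose loss raises luciferase production in HEK293 cells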 (primary screen)
# System: human HEK293 embryonic kidney cells stably expressing firefly luciferase (HEK-CMV-Luc2-Hygro)
# Reagents: single siRNA against human genes, 0.8 pmol siRNA per well
# Timing: 72 h
# Read-out: 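Luciferase light (ONE-Glo) measured on one replicate plate set and viability (CellTiter-Glo) on the other, scaled to a negative control siRNA, with robust z-scores and luciferase per cell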
# Reading the numbers: total luciferase, z-score and total luciferase, % of control: higher = more reporter protein produced; luciferase per cell, z-score: higher = more reporter output per viable cell; viable cells, % of control: higher = more viable cells
# Active means: 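Active when the median/MAD z-score for overall luciferase is greater than 3; a gene was taken forward for validation with new siRNAs if at least two of its three siRNAs passed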
# Meaning of the calls: active = raised luciferase; inactive = no rise
# This is one part, drawn at random, of about 59,000 reagents tested. About 1,510 of all reagents (2.6%) count as active. 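Calls use total luciferase alone and ignore viability, so some active siRNAs may act by altering cell number.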 Reagents against one gene are numbered here.
gene,siRNA no.,"total luciferase, z-score","total luciferase, % of control","luciferase per cell, z-score","viable cells, % of control",Call
ECD (ecdysoneless cell cycle regulator),1,0.919,100,1.2,81.6,inactive
ECD (ecdysoneless cell cycle regulator),2,0.314,88.1,-0.4,109,inactive
ECD (ecdysoneless cell cycle regulator),3,-0.703,67.9,-1.37,109,inactive
UBE2A (ubiquitin conjugating enzyme E2 A),1,-0.521,71.5,-0.49,90.9,inactive
UBE2A (ubiquitin conjugating enzyme E2 A),2,-1.75,47.1,-2.5,102,inactive
UBE2A (ubiquitin conjugating enzyme E2 A),3,0.181,85.5,-0.155,99.5,inactive
PDIA3 (protein disulfide isomerase family A member 3),1,-0.0805,80.3,0.653,75.5,inactive
PDIA3 (protein disulfide isomerase family A member 3),2,0.0175,82.2,-0.708,111,inactive
PDIA3 (protein disulfide isomerase family A member 3),3,-1.06,60.8,-0.411,75.6,inactive
XKR8 (XK related 8),1,1.45,111,3.26,52.4,inactive
XKR8 (XK related 8),2,2.55,133,1.7,94.7,inactive
XKR8 (XK related 8),3,0.33,88.4,0.167,94.6,inactive
ANAPC10 (anaphase promoting complex subunit 10),1,-1.13,59.4,-1.54,99.5,inactive
ANAPC10 (anaphase promoting complex subunit 10),2,0.0176,82.2,0.817,74.1,inactive
ANAPC10 (anaphase promoting complex subunit 10),3,-1.36,54.9,-1.26,85.4,inactive
MED28 (mediator complex subunit 28),1,-2.03,41.5,-1.77,73.9,inactive
MED28 (mediator complex subunit 28),2,-2.73,27.5,-2.82,64.6,inactive
MED28 (mediator complex subunit 28),3,-1.88,44.5,-0.936,63.6,inactive
"PSMC5 (proteasome 26S subunit, ATPase 5)",1,-0.389,74.2,1.39,57.5,inactive
"PSMC5 (proteasome 26S subunit, ATPase 5)",2,0.0885,83.6,2.04,54.6,inactive
"PSMC5 (proteasome 26S subunit, ATPase 5)",3,0.514,92.1,2.2,57.7,inactive
SORBS1 (sorbin and SH3 domain containing 1),1,0.0932,83.7,-0.471,106,inactive
SORBS1 (sorbin and SH3 domain containing 1),2,0.88,99.4,0.95,86.5,inactive
SORBS1 (sorbin and SH3 domain containing 1),3,-0.038,81.1,-0.621,107,inactive
CYTL1 (cytokine like 1),1,0.467,91.2,0.678,85.2,inactive
CYTL1 (cytokine like 1),2,0.914,100,0.58,96,inactive
CYTL1 (cytokine like 1),3,1.37,109,0.246,114,inactive
CFAP299 (cilia and flagella associated protein 299),1,-0.088,80.1,0.246,83.9,inactive
CFAP299 (cilia and flagella associated protein 299),2,0.421,90.3,1.25,72.6,inactive
CFAP299 (cilia and flagella associated protein 299),3,0.247,86.8,-0.232,103,inactive
LINS1 (lines homolog 1),1,-1.64,49.2,-1.67,85.2,inactive
LINS1 (lines homolog 1),2,0.485,91.5,1.23,74,inactive
LINS1 (lines homolog 1),3,0.732,96.4,-0.403,120,inactive
H4C7 (H4 clustered histone 7),1,1.84,118,2.14,75.3,inactive
H4C7 (H4 clustered histone 7),2,0.832,98.4,1.86,67.4,inactive
H4C7 (H4 clustered histone 7),3,0.756,96.9,0.434,96.6,inactive
CAPZA1 (capping actin protein of muscle Z-line subunit alpha 1),1,1.27,107,0.278,111,inactive
CAPZA1 (capping actin protein of muscle Z-line subunit alpha 1),2,-0.232,77.3,-0.0326,87.1,inactive
CAPZA1 (capping actin protein of muscle Z-line subunit alpha 1),3,-0.964,62.7,-1.3,98.6,inactive
RCN2 (reticulocalbin 2),1,-0.548,71,-0.929,101,inactive
RCN2 (reticulocalbin 2),2,-0.263,76.6,0.598,73.2,inactive
RCN2 (reticulocalbin 2),3,0.126,84.4,-0.435,106,inactive
KCNT1 (potassium sodium-activated channel subfamily T member 1),1,-0.806,65.8,-1.17,100,inactive
KCNT1 (potassium sodium-activated channel subfamily T member 1),2,-0.631,69.3,-0.619,91.2,inactive
KCNT1 (potassium sodium-activated channel subfamily T member 1),3,0.0604,83.1,0.292,86,inactive
UQCRC1 (ubiquinol-cytochrome c reductase core protein 1),1,-1.19,58.2,-1.23,89.9,inactive
UQCRC1 (ubiquinol-cytochrome c reductase core protein 1),2,0.552,92.9,0.212,98.1,inactive
UQCRC1 (ubiquinol-cytochrome c reductase core protein 1),3,1.04,103,0.525,99.8,inactive
GPR75 (G protein-coupled receptor 75),1,0.393,89.7,0.554,86.6,inactive
GPR75 (G protein-coupled receptor 75),2,0.492,91.7,0.287,95,inactive
GPR75 (G protein-coupled receptor 75),3,-1.32,55.7,-0.00895,62.4,inactive
"B4GALT3 (beta-1,4-galactosyltransferase 3)",1,-0.573,70.5,-0.272,84.6,inactive
"B4GALT3 (beta-1,4-galactosyltransferase 3)",2,-1.15,59.1,-1.22,91,inactive
"B4GALT3 (beta-1,4-galactosyltransferase 3)",3,-0.0702,80.5,-0.444,101,inactive
ZCWPW1 (zinc finger CW-type and PWWP domain containing 1),1,-0.191,78.1,-0.267,93.6,inactive
ZCWPW1 (zinc finger CW-type and PWWP domain containing 1),2,0.258,87,-0.072,99.1,inactive
ZCWPW1 (zinc finger CW-type and PWWP domain containing 1),3,-0.242,77.1,-0.401,95.7,inactive

6 entries from above, limited to “total luciferase, z-score”.
MED28 (mediator complex subunit 28) #1	-2.03
MED28 (mediator complex subunit 28) #2	-2.73
MED28 (mediator complex subunit 28) #3	-1.88
PSMC5 (proteasome 26S subunit, ATPase 5) #1	-0.389
PSMC5 (proteasome 26S subunit, ATPase 5) #2	0.0885
PSMC5 (proteasome 26S subunit, ATPase 5) #3	0.514
